Results on 45 molecules are retold here after the supplement of paper PMC7858590.

The structures appear in SMILES notation. ± gives the standard deviation of the averaged measurements. Over roughly 3,800 compounds, “cell shape (eccentricity) Z-score vs DMSO control” has its median near 1.1; the lowest 2% begin near -4.7. The list shows a part of the results.

In the experiment the test system is human monocyte-derived macrophages (M0). The experiment is described as follows: cell shape (eccentricity) Z-score vs DMSO control; higher = more elongated, M2-like morphology. As to conditions: 20 µM; 24 h; macrophage state: M0 (M-CSF).
On to `CCCCC1C(=O)N(c2ccccc2)N(c2ccccc2)C1=O`, for which the “cell shape (Z-score)” value was -2.01.
Turning to `C=C1C(=O)O[C@@H]2[C@H]3C(=C)[C@@H](O[C@@H]4O[C@H](CO)[C@@H](OC(=O)/C=C/c5ccc(O)c(O)c5)[C@H](O)[C@H]4O)C[C@H]3C(=C)C[C@@H](O)[C@@H]12`, the “cell shape (Z-score)” value was found to be 1.59.
Regarding `Cn1cnc2cc3c(Nc4cccc(Br)c4)ncnc3cc21`, the “cell shape (Z-score)” value amounted to 0.448.
For the molecule `CC(=O)Nc1ccc(C(=O)Nc2ccc(F)cc2N)cc1`, the “cell shape (Z-score)” value came to 5.63.
As to `O=C1c2ccccc2-c2nc3nonc3nc21`, the “cell shape (Z-score)” value is -6.25.
For the molecule `C=C[C@H]1[C@H](O[C@@H]2O[C@H](CO)[C@@H](O)[C@H](O)[C@H]2O)OC=C2C(=O)OCC[C@]21O`, the “cell shape (Z-score)” value is 0.75.
Turning to `COc1c(O[C@@H]2O[C@H](C(=O)O)[C@@H](O)[C@H](O)[C@H]2O)cc2oc(-c3ccc(O)cc3)cc(=O)c2c1O`, the “cell shape (Z-score)” value is -0.54 ± 3.8.
For the molecule `COc1c2ccoc2cc2oc(C)cc(=O)c12`, the “cell shape (Z-score)” value stood at 1.8.
With `CN1C(C(=O)Nc2ccccn2)C(=O)c2ccccc2S1(=O)=O` (stereo not given), the “cell shape (Z-score)” value was 1.33.
For the molecule `CCCCS(=O)(=O)N[C@@H](Cc1ccc(OCCCCC2CCNCC2)cc1)C(=O)O`, the “cell shape (Z-score)” value was -0.679.
With `CCC[C@@H]1C[C@@H](C(=O)N[C@@H](C2O[C@H](SC)[C@H](O)[C@@H](O)[C@H]2O)[C@H](C)Cl)N(C)C1` (stereo not given in full), the “cell shape (Z-score)” value is 1.78.
For `COc1ccc(CN(CCN(C)C)c2ncccn2)cc1` the value was 4.79; for `O=c1cc(-c2cccc3c2Sc2ccccc2S3)oc(N2CCOCC2)c1`, 7.53; for `CN1CCN(C2=Nc3cc(F)ccc3Cc3ccccc32)CC1`, 1.25.
Regarding `CC1C(=O)c2cc3c(cc2CCN(C)Cc2c1ccc1c2OCO1)OCO3` (stereo not given), the “cell shape (Z-score)” value is -1.3 ± 0.27.
With `CCc1ccc2c(-c3cccc(Cl)c3)nc(=O)n(CC)c2n1`, the “cell shape (Z-score)” value was found to be 0.205.
On to `COc1cccc(NC(=O)C=Cc2ccc(Cl)cc2)c1`, for which the “cell shape (Z-score)” value came out at 5.64.
Consider `C=C[C@@]1(C)CC(=O)[C@@]2(O)[C@](C)(O1)[C@@H](O)[C@@H](O)C1C(C)(C)CC[C@H](O)[C@@]12C` (stereo not given in full), for which the “cell shape (Z-score)” value turned out to be 0.963.
For the molecule `CC(=O)OCC(=O)[C@H]1CCC2C3CCC4=CC(=O)CC[C@]4(C)C3CC[C@@]21C` (stereo not given in full), the “cell shape (Z-score)” value came to 2.26.
For `COC(=O)C1=CO[C@@H](O[C@@H]2O[C@H](CO)[C@@H](O)[C@H](O)[C@H]2O)[C@H]2[C@@H]1[C@H](OC(=O)/C=C/c1ccc(O)cc1)C[C@]2(C)OC(C)=O`, the “cell shape (Z-score)” value came out at 2.25.
On to `COc1ccc(-c2cc(=O)c3c(OC)c(OC)c(OC)cc3o2)cc1OC`, for which the “cell shape (Z-score)” value stood at 3.99.
Consider `Nc1nc(Cl)nc2c1ncn2[C@@H]1O[C@H](CO)[C@@H](O)[C@@H]1F`, for which the “cell shape (Z-score)” value stood at 0.675.
Take `C/C=C/C(=O)N(CC)c1ccccc1C`: the “cell shape (Z-score)” value was 2.27.
Regarding `N#CC(C#N)=C(N)/C(C#N)=C/c1cc(O)c(O)c(O)c1`, the “cell shape (Z-score)” value worked out at 0.676.
For `O=c1c(O[C@@H]2O[C@H](CO)[C@H](O)[C@H](O)[C@H]2O)c(-c2ccc(O)cc2)oc2cc(O)cc(O)c12`, the “cell shape (Z-score)” value is 1.22.
For `COc1c(C2OCC(O)C(O)C2O)c(O)cc2oc(-c3ccc(OC4OC(C)C(O)C(O)C4O)cc3)cc(=O)c12` (stereo not given), the “cell shape (Z-score)” value is -1.02.
For `COc1ccc(S(=O)(=O)N2c3ccc(Cl)cc3[C@](O)(c3ccccc3Cl)[C@@H]2C(=O)N2CCC[C@H]2C(N)=O)cc1OC` the value was 1.6; for `COc1c(O)cc2c(c1O)C(=O)OC(C)C2O` (stereo not given), -0.537.
To `CC(C)(C)NCC(O)COc1cccc2c1CCCC2=O` (stereo not given) belongs 1.87; to `O=c1c(-c2ccc(O)cc2)coc2cc(O)cc(O)c12`, 4.15; to `COc1ccc(-c2coc3c(OC)c(OC)cc(OC4OC(CO)C(O)C(O)C4OC4OCC(O)C(O)C4O)c3c2=O)cc1` (stereo not given), 0.226.
As for `CC(=O)OC[C@@]12C(=O)C[C@@H](C)[C@]3(C[C@@H](c4ccoc4)OC3=O)[C@H]1CC[C@H](OC(C)=O)[C@]21CO1`, the “cell shape (Z-score)” value was -0.129.
As to `C=CC(C)(CC/C=C(\C)C(=O)O)O[C@@H]1O[C@H](C)[C@@H](O)[C@H](O)[C@H]1O` (stereo not given in full), the “cell shape (Z-score)” value was found to be 0.936.
To `O=C(c1ccc(/C=C/c2n[nH]c3ccccc23)cc1)N1CCNCC1` belongs 20.2.
For `CCC/C=C/C=C/C1CC(O)C(O)C(O)C1CO` (stereo not given) the value was 0.441; for `COc1ccc(C=CC(=O)Nc2ccccc2C(=O)O)cc1OC`, -1.37.
Regarding `COc1cc(C(C)/C=C(/C)CC(=O)O)oc(=O)c1C` (stereo not given), the “cell shape (Z-score)” value came to 0.462 ± 0.48.
Turning to `COc1ccc(-c2coc3cc(O)ccc3c2=O)cc1`, the “cell shape (Z-score)” value worked out at 2.79.
Take `COc1cc(N)c(Cl)cc1C(=O)CCC1CCN(CCNS(C)(=O)=O)CC1`: the “cell shape (Z-score)” value was -0.808.
As to `C=C1C(O)C(O)C2(CC3C(C)=CCC4C(C)(C(=O)O)CCCC34C)OC2C1O` (stereo not given), the “cell shape (Z-score)” value was 4.78.
With `Nc1nc(=O)c2nc(CNc3ccc(C(=O)N[C@@H](CCC(=O)O)C(=O)O)cc3)cnc2[nH]1`, the “cell shape (Z-score)” value was determined as 3.54.
As to `Cc1cn([C@H]2C[C@H](N=[N+]=[N-])[C@@H](CO)O2)c(=O)[nH]c1=O`, the “cell shape (Z-score)” value is -2.27.
As to `O=C(N/N=C/c1ccccc1O)c1ccccc1O`, the “cell shape (Z-score)” value came to 1.34.
To `COC(=O)c1c(OC)cc2c(c1C)Oc1c(Cl)c(O)c(Cl)c(C)c1C(=O)O2` belongs 1.55; to `CN(C)CCN(Cc1ccc(Cl)cc1)c1ccccn1`, 3.03.
